Some of the results follow.

Protein sequences, listed by entry. Tags and fused reporters are not part of them. Lines headed by an entry give the natural chain unless they say otherwise; changes in a name come on top.
UniProt Q8TCF1: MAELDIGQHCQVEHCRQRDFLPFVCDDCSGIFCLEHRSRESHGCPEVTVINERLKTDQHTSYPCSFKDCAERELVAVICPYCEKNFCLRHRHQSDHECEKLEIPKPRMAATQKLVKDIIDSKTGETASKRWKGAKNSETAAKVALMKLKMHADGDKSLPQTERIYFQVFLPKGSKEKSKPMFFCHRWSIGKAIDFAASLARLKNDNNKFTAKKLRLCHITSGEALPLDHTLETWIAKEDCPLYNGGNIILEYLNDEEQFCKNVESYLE
UniProt A8MPS7: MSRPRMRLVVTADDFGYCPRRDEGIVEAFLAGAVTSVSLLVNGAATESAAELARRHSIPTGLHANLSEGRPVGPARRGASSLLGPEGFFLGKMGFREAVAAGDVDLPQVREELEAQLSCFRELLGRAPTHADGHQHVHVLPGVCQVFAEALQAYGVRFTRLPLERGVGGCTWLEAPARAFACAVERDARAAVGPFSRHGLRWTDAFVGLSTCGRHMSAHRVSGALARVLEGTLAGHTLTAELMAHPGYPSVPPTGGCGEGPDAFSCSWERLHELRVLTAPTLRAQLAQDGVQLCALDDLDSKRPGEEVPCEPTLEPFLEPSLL
UniProt Q9UGR2: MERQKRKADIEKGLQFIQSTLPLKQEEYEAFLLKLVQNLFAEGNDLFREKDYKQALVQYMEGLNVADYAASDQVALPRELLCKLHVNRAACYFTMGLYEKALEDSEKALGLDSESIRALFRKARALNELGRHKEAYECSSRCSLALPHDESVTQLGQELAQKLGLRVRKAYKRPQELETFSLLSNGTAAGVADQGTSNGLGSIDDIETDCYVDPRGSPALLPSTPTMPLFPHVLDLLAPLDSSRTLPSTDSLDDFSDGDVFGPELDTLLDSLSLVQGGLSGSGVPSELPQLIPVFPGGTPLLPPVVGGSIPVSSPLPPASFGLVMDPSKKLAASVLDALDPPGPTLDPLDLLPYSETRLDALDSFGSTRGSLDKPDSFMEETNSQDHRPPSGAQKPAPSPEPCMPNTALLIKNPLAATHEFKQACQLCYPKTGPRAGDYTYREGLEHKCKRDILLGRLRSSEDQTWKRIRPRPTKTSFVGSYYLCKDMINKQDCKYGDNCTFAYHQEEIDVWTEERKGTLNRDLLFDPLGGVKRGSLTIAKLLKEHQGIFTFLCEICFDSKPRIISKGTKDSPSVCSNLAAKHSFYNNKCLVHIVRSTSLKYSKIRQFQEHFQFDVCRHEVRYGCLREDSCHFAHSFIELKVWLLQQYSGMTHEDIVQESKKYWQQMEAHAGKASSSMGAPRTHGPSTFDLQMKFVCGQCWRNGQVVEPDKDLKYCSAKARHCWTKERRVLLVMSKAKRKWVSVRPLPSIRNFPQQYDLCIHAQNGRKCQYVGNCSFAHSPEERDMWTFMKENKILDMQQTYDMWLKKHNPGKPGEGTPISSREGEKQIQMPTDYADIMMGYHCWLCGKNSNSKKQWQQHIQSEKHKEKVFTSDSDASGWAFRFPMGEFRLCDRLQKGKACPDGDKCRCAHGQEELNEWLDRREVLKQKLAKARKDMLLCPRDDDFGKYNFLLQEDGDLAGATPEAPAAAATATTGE
UniProt Q96H79: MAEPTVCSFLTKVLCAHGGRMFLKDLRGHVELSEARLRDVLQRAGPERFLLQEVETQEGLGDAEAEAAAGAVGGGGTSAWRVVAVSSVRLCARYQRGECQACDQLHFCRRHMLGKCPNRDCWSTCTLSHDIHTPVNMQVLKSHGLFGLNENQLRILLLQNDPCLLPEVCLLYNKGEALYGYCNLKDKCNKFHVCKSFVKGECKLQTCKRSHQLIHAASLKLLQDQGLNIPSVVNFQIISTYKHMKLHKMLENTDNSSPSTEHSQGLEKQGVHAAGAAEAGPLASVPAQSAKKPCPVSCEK
UniProt Q9H0D6: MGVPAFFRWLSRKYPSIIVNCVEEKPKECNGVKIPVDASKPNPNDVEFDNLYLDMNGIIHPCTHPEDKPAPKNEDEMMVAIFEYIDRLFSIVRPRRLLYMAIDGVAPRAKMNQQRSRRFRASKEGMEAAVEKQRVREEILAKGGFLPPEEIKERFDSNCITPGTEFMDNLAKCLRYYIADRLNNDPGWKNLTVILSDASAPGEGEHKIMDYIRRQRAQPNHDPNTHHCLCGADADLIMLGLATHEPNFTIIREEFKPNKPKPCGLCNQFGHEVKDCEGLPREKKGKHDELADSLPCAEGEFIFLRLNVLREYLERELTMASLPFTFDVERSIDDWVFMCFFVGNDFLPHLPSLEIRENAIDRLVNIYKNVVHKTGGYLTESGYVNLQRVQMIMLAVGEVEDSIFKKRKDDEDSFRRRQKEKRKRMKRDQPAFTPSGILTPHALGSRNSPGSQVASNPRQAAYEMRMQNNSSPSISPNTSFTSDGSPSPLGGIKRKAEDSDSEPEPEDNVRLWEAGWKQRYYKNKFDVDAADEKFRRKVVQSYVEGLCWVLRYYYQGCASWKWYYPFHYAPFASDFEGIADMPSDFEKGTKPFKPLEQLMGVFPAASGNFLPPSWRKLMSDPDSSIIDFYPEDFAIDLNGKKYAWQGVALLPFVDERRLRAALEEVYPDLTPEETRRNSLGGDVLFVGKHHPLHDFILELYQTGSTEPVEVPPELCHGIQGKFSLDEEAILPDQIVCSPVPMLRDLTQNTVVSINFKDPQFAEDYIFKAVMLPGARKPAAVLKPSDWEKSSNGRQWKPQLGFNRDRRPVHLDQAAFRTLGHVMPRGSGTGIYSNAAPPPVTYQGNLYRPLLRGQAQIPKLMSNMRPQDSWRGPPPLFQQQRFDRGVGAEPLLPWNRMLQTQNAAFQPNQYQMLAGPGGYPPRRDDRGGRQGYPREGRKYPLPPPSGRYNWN
UniProt Q9UIA9: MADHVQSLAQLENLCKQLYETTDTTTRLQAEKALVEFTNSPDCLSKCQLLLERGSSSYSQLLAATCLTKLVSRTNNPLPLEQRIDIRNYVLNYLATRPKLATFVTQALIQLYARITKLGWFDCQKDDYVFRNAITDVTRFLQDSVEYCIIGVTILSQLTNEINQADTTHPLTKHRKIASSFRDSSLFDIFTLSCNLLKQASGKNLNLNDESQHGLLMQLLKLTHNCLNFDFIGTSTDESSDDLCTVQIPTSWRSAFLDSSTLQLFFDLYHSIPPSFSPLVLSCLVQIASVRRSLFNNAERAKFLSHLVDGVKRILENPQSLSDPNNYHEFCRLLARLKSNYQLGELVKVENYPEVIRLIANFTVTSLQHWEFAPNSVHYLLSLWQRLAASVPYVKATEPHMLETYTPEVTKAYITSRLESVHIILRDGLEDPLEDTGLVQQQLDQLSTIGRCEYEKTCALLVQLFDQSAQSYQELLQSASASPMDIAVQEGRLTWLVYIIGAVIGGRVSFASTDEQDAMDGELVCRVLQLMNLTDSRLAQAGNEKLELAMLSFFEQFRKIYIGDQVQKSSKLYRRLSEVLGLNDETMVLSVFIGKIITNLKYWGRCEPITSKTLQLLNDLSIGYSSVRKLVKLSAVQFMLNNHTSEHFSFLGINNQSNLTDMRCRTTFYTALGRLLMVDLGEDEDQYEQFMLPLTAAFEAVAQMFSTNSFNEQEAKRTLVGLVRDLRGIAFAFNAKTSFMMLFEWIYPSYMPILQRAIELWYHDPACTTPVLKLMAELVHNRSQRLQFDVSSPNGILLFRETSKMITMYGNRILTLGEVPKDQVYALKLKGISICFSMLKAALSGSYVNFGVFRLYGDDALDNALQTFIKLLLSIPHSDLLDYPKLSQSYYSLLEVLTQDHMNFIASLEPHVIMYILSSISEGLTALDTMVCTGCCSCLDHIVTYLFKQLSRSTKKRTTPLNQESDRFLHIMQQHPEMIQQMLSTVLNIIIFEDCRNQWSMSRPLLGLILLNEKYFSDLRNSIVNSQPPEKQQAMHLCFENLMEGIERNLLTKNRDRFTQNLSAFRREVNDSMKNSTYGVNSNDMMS
UniProt Q8NCP5: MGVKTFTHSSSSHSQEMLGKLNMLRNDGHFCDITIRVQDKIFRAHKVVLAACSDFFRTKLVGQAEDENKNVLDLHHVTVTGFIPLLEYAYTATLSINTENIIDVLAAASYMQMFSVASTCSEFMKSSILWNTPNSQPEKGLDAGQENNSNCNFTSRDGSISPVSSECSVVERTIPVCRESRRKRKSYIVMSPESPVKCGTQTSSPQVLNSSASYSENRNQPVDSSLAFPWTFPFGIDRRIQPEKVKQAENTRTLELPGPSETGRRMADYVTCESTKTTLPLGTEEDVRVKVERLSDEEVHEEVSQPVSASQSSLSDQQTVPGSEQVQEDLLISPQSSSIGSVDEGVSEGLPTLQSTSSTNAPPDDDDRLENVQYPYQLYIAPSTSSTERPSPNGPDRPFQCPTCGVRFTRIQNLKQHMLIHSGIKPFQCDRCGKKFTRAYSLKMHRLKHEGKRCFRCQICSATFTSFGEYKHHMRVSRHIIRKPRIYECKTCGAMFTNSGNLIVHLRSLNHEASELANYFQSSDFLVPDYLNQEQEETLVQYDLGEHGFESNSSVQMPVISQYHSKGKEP
UniProt P27348: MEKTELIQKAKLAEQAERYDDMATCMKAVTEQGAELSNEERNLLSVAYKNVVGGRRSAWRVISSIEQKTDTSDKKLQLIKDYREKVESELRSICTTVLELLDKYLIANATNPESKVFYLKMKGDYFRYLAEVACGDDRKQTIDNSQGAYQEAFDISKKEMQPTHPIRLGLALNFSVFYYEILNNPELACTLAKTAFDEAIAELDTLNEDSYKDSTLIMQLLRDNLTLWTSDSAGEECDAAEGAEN
UniProt Q96K80: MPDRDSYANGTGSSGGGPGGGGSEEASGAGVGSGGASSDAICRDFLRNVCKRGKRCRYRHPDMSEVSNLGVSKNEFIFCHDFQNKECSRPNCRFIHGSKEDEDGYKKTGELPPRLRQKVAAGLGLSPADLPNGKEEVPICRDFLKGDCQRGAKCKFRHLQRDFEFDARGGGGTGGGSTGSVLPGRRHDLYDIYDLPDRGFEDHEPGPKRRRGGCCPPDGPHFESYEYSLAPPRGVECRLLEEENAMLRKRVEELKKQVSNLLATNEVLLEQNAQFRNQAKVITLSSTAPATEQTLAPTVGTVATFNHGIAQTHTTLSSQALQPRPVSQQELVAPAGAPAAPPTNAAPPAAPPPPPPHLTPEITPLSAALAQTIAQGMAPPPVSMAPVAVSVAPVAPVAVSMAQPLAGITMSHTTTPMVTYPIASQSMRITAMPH
UniProt P13010: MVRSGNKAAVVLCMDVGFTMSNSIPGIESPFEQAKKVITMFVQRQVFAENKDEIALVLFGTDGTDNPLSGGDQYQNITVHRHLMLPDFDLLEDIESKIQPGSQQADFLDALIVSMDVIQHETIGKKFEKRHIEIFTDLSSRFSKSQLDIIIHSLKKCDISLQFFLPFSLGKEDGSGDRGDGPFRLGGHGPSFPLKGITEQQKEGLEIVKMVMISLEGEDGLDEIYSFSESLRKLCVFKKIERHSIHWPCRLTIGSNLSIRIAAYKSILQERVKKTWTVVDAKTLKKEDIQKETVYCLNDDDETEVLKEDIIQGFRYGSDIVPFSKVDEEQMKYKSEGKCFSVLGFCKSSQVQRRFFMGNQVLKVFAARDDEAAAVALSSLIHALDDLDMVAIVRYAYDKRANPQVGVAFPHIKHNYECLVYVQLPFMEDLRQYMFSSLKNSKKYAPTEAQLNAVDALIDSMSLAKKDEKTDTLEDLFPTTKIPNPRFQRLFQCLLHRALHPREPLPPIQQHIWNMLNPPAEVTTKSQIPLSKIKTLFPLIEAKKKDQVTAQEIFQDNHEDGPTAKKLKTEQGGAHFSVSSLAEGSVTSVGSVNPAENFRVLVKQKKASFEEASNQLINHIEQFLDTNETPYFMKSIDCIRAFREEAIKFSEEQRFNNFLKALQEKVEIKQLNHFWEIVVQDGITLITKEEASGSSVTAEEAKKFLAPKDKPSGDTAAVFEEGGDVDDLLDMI

This is an account of results in the supplement of paper PMC12067093, “Discovery and optimisation of a covalent ligand for TRIM25 and its application to targeted protein ubiquitination” (Chemical Science, 2025).
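Note: competitive profiling in live THP-1 cells: cysteine peptides tagged with an iodoacetamide desthiobiotin (IA-DTB) probe, intensity after compound treatment relative to DMSO-treated cells.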

Compound in this assay: Cc1cc(ccc1-c1ccccc1)C(=O)N1CCCN(CC1)C(=O)CCl [compound 10]
Put plainly: probe-labelled cysteine peptide fold change vs DMSO (competition) (log2 fold change); higher = less target engagement (more negative = stronger competition). The following applies: 50 µM; THP-1; incubation time: 4 h.
As for “ZC3HAV1_Q7Z2W4_513_VDDHDSEEICLDHLCK (UniProt Q7Z2W4)”, the “probe-labelled cysteine peptide fold change” value is -0.396.
To “ZFAND1_Q8TCF1_33_DFLPFVCDDCSGIFCLEHR (UniProt Q8TCF1)” belongs -0.0951.
For “YDJC_A8MPS7_294_AQLAQDGVQLCALDDLDSK (UniProt A8MPS7)”, the “probe-labelled cysteine peptide fold change” value was 0.0842.
With “ZC3H7B_Q9UGR2_909_CAHGQEELNEWLDRR (UniProt Q9UGR2)”, the “probe-labelled cysteine peptide fold change” value was -0.228.
As for “ZC3HAV1L_Q96H79_7_AEPTVCSFLTK (UniProt Q96H79)”, the figure is -0.401; as for “XRN2_Q9H0D6_296_HDELADSLPCAEGEFIFLR (UniProt Q9H0D6)”, 0.125; as for “ZFAND1_Q8TCF1_10+15_AELDIGQHCQVEHCR (UniProt Q8TCF1)”, 0.254.
As for “ZC3HAV1L_Q96H79_125_DCWSTCTLSHDIHTPVNMQVLK (UniProt Q96H79)”, the figure is -0.603; as for “XPO7_Q9UIA9_1038_QQAMHLCFENLMEGIER (UniProt Q9UIA9)”, 0.203; as for “ZC3H7B_Q9UGR2_91_AACYFTMGLYEK (UniProt Q9UGR2)”, -0.205.
As for “ZBTB44_Q8NCP5_272_MADYVTCESTK (UniProt Q8NCP5)”, the figure is -0.124; as for “YWHAQ_P27348_134_YLAEVACGDDR (UniProt P27348)”, 0.185.
Take “ZC3H10_Q96K80_79_NEFIFCHDFQNK (UniProt Q96K80)”: the “probe-labelled cysteine peptide fold change” value is 0.18.
For “XRN2_Q9H0D6_296_KGKHDELADSLPCAEGEFIFLR (UniProt Q9H0D6)”, the “probe-labelled cysteine peptide fold change” value was -0.143.
For the target “YDJC_A8MPS7_119_EAVAAGDVDLPQVREELEAQLSCFR (UniProt A8MPS7)”, the “probe-labelled cysteine peptide fold change” value was 0.573.
With “XRCC5_P13010_339_CFSVLGFCK (UniProt P13010)”, the “probe-labelled cysteine peptide fold change” value was -0.088.
